# Experimental data reported in US5977088A (priority 1995, dated 1999).
# Test: Chronic conditions - evaluations of patients treated with […] hyaluronic acid with 3% diclofenac acid (HD)
# Assay type: in vivo, human (patients)
# Settings: single patient
structure (smiles),measurement,value
C[C@]12CCC(=O)C=C1CC[C@@H]1[C@@H]2C(=O)C[C@@]2(C)[C@H]1CC[C@]2(O)C(=O)CO [cortisone],Comments on outcome (in words),transient relief
